Data taken from PMC11300639.

Chains of the proteins cited; added tags and fusions are not shown. Lines headed by an entry give the natural chain unless they say otherwise; changes in a name come on top.
UniProt Q9BY78: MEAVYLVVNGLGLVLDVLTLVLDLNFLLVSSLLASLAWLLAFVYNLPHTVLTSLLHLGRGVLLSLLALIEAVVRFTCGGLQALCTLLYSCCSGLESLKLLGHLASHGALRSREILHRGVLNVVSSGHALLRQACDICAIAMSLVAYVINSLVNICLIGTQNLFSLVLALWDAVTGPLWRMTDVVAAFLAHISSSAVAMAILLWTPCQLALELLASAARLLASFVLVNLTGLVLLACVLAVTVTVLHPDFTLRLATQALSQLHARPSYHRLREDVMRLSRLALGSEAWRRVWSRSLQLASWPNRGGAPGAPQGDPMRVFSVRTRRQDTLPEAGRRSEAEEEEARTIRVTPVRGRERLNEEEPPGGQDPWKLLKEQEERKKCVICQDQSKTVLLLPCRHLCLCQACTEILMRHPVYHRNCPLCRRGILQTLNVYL

Key:
[1] = target: RNF26-T348D (threonine to aspartate) (human) (UniProt Q9BY78); assay: pull-down; GST pull-down with recombinant proteins of RNF26; source of TSC1 not told
[2] = target: wild-type RNF26 (recombinant protein in the GST pull-down of Fig. 2n) (human) (UniProt Q9BY78); assay: as above

binding [1]: binds
binding [2]: binds
B1: TSC1 (in the GST pull-down assays) (protein, UniProt Q92574 1-1164)
chain: MAQQANVGELLAMLDSPMLGVRDDVTAVFKENLNSDRGPMLVNTLVDYYLETSSQPALHILTTLQEPHDKHLLDRINEYVGKAATRLSILSLLGHVIRLQPSWKHKLSQAPLLPSLLKCLKMDTDVVVLTTGVLVLITMLPMIPQSGKQHLLDFFDIFGRLSSWCLKKPGHVAEVYLVHLHASVYALFHRLYGMYPCNFVSFLRSHYSMKENLETFEEVVKPMMEHVRIHPELVTGSKDHELDPRRWKRLETHDVVIECAKISLDPTEASYEDGYSVSHQISARFPHRSADVTTSPYADTQNSYGCATSTPYSTSRLMLLNMPGQLPQTLSSPSTRLITEPPQATLWSPSMVCGMTTPPTSPGNVPPDLSHPYSKVFGTTAGGKGTPLGTPATSPPPAPLCHSDDYVHISLPQATVTPPRKEERMDSARPCLHRQHHLLNDRGSEEPPGSKGSVTLSDLPGFLGDLASEEDSIEKDKEEAAISRELSEITTAEAEPVVPRGGFDSPFYRDSLPGSQRKTHSAASSSQGASVNPEPLHSSLDKLGPDTPKQAFTPIDLPCGSADESPAGDRECQTSLETSIFTPSPCKIPPPTRVGFGSGQPPPYDHLFEVALPKTAHHFVIRKTEELLKKAKGNTEEDGVPSTSPMEVLDRLIQQGADAHSKELNKLPLPSKSVDWTHFGGSPPSDEIRTLRDQLLLLHNQLLYERFKRQQHALRNRRLLRKVIKAAALEEHNAAMKDQLKLQEKDIQMWKVSLQKEQARYNQLQEQRDTMVTKLHSQIRQLQHDREEFYNQSQELQTKLEDCRNMIAELRIELKKANNKVCHTELLLSQVSQKLSNSESVQQQMEFLNRQLLVLGEVNELYLEQLQNKHSDTTKEVEMMKAAYRKELEKNRSHVLQQTQRLDTSQKRILELESHLAKKDHLLLEQKKYLEDVKLQARGQLQAAESRYEAQKRITQVFELEILDLYGRLEKDGLLKKLEEEKAEAAEAAEERLDCCNDGCSDSMVGHNEEASGHNGETKTPRPSSARGSSGSRGGGGSSSSSSELSTPEKPPHQRAGPFSSRWETTMGEASASIPTTVGSLPSSKSFLGMKARELFRNKSESQCDEDGMTSSLSESLKTELGKDLGVEAKIPLNLDGPHPSPPTPDSVGQLHIMDYNETHHEHS

These are yes or no findings as the source states them, for the method shown. In cells and extracts the contact can be indirect. A result given as binding can be weak or reduced; the word gives no strength. Tags and fused reporters may be left off the sequences shown.
